Among the data in paper PMC5526789, “Structure of Full-Length SMC and Rearrangements Required for Chromosome Organization” (Molecular Cell, 2017) are binding values, retold here.

In the experiment the target is T1, BsSmcHd(EQ)-CC30 (Bacillus subtilis) (UniProt P51834).
T1 sequence: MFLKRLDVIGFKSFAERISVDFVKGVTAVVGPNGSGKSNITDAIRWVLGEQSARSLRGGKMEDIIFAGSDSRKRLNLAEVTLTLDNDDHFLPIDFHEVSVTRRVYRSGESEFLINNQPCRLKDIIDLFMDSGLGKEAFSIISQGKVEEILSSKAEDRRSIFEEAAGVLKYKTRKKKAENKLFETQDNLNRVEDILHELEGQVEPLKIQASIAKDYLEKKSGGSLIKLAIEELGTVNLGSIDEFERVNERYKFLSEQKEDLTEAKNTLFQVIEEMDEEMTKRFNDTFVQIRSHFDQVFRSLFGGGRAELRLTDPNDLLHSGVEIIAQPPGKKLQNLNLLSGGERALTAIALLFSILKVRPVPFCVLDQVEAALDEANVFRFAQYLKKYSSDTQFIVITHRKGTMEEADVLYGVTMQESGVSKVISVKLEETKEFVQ
The experiment is described as follows: crystal structure; BsSmcHd(EQ)-CC30:ATPγS–ScpA^C; complex incubated with 5 mM MgCl2 and 2 mM ATPγS to induce dimerization; 10% PEG3000, 0.1 M imidazole pH 8.0, 0.2 M Li2SO4, hexamine cobalt chloride; both purified.

Results are given in words; binding and its absence hold for the method and conditions named. Some entries that bind do so weakly or less than the wild type.

B1: BsScpA^C (domain or fragment, UniProt P35154 167-251)
chain: NRPMETTITRQDIPIEARMNEIVHSLKSRGTRINFMDLFPYEQKEHLVVTFLAVLELMKNQLVLIEQEHNFSDIYITGSESIHGA
With B1, the binding result is recorded as “binds”.
